The source holds more than one record for some entries. The list is limited to them. The source may hold further records. Results that share an entry differ for a reason that is not stated; dose, time, organism, isomer or construct need not be as stated for each record.
Tested on: transgenic tobacco plants expressing mutant HPPD SEQ ID NO: 122
Experiment: spray test, herbicidal damage scoring
Assay type: in vivo
Details: Table 4.4; 7 days after treatment; SEQ ID NO: 122; 100=complete death, 0=no damage; one value per event

COc1ccc(-n2nc(C)cc(C(=O)C3C(=O)CCCC3=O)c2=O)cc1OC [Herbicide C, dioxopyritrione]
herbicidal damage scoring, Herbicide C (100 g/ha): 80, 35, 45

Source: patent US20240043860A1, “NOVEL HYDROXYPHENYLPYRUVATE DIOXYGENASE POLYPEPTIDES AND METHODS OF USE THEREOF” (Syngenta Crop Protection AG, priority 2020, published 2024)
